The supplement of paper PMC7661543
± gives the standard deviation of the averaged measurements. The effect of the compound repeats well; differences between the knockouts mostly do not.

Tested on: BT-20
Assay: relative cell number vs DMSO control (72 h) (% of DMSO); higher = less growth inhibition (more cells)
Protocol: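 QMAP-Seq: a pool of 5 breast cancer cell lines (ZR-75-1, SKBR3, HCC-38, MDA-MB-231, BT-20), each carrying 12 doxycycline-inducible Cas9 sgRNA perturbations (11 knockouts plus non-targeting sgNT), was treated with compounds for 72 h at four 10-fold doses (10 nM-10 uM or 1 nM-1 uM range). Barcodes were amplified and sequenced, and cell number was interpolated from 293T spike-in standard curves. The result is expressed as % of the median of DMSO wells. Two biological replicates.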

O=C1CCC(N2C(=O)c3ccccc3C2=O)C(=O)N1 (configuration not stated) [Thalidomide]
Details | relative cell number
sgRNA knockout: sgATF3, 10 nM | 104 ± 3.9
sgRNA knockout: sgATF3, 100 nM | 90.9 ± 11
sgRNA knockout: sgATF3, 1000 nM | 105 ± 9.6
sgRNA knockout: sgATF3, 10000 nM | 107 ± 10
sgRNA knockout: sgATF4, 10 nM | 121 ± 13
sgRNA knockout: sgATF4, 100 nM | 81.2 ± 9.3
sgRNA knockout: sgATF4, 1000 nM | 116 ± 15
sgRNA knockout: sgATF4, 10000 nM | 123 ± 26
sgRNA knockout: sgATF6, 10 nM | 89.1 ± 4.5
sgRNA knockout: sgATF6, 100 nM | 84.1 ± 4
sgRNA knockout: sgATF6, 1000 nM | 120 ± 5.2
sgRNA knockout: sgATF6, 10000 nM | 115 ± 25
sgRNA knockout: sgATG7, 10 nM | 96.4 ± 12
sgRNA knockout: sgATG7, 100 nM | 82.1 ± 8.9
sgRNA knockout: sgATG7, 1000 nM | 108 ± 3.7
sgRNA knockout: sgATG7, 10000 nM | 115 ± 12
sgRNA knockout: sgERN1, 10 nM | 95.8 ± 1.1
sgRNA knockout: sgERN1, 100 nM | 89 ± 5.5
sgRNA knockout: sgERN1, 1000 nM | 101 ± 8.7
sgRNA knockout: sgERN1, 10000 nM | 112 ± 25
sgRNA knockout: sgHSF1, 10 nM | 104 ± 2.1
sgRNA knockout: sgHSF1, 100 nM | 82.4 ± 1.6
sgRNA knockout: sgHSF1, 1000 nM | 106 ± 1.5
sgRNA knockout: sgHSF1, 10000 nM | 124 ± 29
sgRNA knockout: sgHSF2, 10 nM | 107 ± 2.5
sgRNA knockout: sgHSF2, 100 nM | 81.5 ± 7.8
sgRNA knockout: sgHSF2, 1000 nM | 95.6 ± 21
sgRNA knockout: sgHSF2, 10000 nM | 113 ± 20
sgRNA knockout: sgKEAP1, 10 nM | 97.1 ± 12
sgRNA knockout: sgKEAP1, 100 nM | 85.1 ± 5.5
sgRNA knockout: sgKEAP1, 1000 nM | 101 ± 8.1
sgRNA knockout: sgKEAP1, 10000 nM | 105 ± 7.7
sgRNA knockout: sgNFE2L2, 10 nM | 120 ± 4.7
sgRNA knockout: sgNFE2L2, 100 nM | 93.9 ± 11
sgRNA knockout: sgNFE2L2, 1000 nM | 129 ± 20
sgRNA knockout: sgNFE2L2, 10000 nM | 152 ± 11
sgRNA knockout: sgSLC35F2, 10 nM | 101 ± 8.8
sgRNA knockout: sgSLC35F2, 100 nM | 80 ± 1.3
sgRNA knockout: sgSLC35F2, 1000 nM | 114 ± 27
sgRNA knockout: sgSLC35F2, 10000 nM | 122 ± 33
sgRNA knockout: sgXBP1, 10 nM | 111 ± 7.5
sgRNA knockout: sgXBP1, 100 nM | 95.3 ± 11
sgRNA knockout: sgXBP1, 1000 nM | 116 ± 5.7
sgRNA knockout: sgXBP1, 10000 nM | 121 ± 19

CN(C)c1cc(NC(=O)CNC(C)(C)C)c(O)c2c1C[C@H]1C[C@H]3[C@H](N(C)C)C(O)=C(C(N)=O)C(=O)[C@@]3(O)C(O)=C1C2=O [Tigecycline]
Details | relative cell number
sgRNA knockout: sgATF3, 10 nM | 94.3 ± 14
sgRNA knockout: sgATF3, 100 nM | 111 ± 15
sgRNA knockout: sgATF3, 1000 nM | 93.1 ± 17
sgRNA knockout: sgATF3, 10000 nM | 107 ± 8.4
sgRNA knockout: sgATF4, 10 nM | 95.2 ± 18
sgRNA knockout: sgATF4, 100 nM | 105 ± 24
sgRNA knockout: sgATF4, 1000 nM | 109 ± 26
sgRNA knockout: sgATF4, 10000 nM | 95.7 ± 5.2
sgRNA knockout: sgATF6, 10 nM | 104 ± 3.7
sgRNA knockout: sgATF6, 100 nM | 115.5 ± 0.61
sgRNA knockout: sgATF6, 1000 nM | 92.8 ± 18
sgRNA knockout: sgATF6, 10000 nM | 114 ± 20
sgRNA knockout: sgATG7, 10 nM | 96.2 ± 6.1
sgRNA knockout: sgATG7, 100 nM | 105 ± 14
sgRNA knockout: sgATG7, 1000 nM | 98.7 ± 5.2
sgRNA knockout: sgATG7, 10000 nM | 105 ± 15
sgRNA knockout: sgERN1, 10 nM | 97.5 ± 5.1
sgRNA knockout: sgERN1, 100 nM | 97.2 ± 5.7
sgRNA knockout: sgERN1, 1000 nM | 103 ± 5.1
sgRNA knockout: sgERN1, 10000 nM | 91.7 ± 20
sgRNA knockout: sgHSF1, 10 nM | 105 ± 2.9
sgRNA knockout: sgHSF1, 100 nM | 91.3 ± 1.2
sgRNA knockout: sgHSF1, 1000 nM | 106 ± 13
sgRNA knockout: sgHSF1, 10000 nM | 99.7 ± 13
sgRNA knockout: sgHSF2, 10 nM | 94.9 ± 27
sgRNA knockout: sgHSF2, 100 nM | 75.7 ± 2.9
sgRNA knockout: sgHSF2, 1000 nM | 102 ± 10
sgRNA knockout: sgHSF2, 10000 nM | 95.8 ± 7.5
sgRNA knockout: sgKEAP1, 10 nM | 99.8 ± 2.7
sgRNA knockout: sgKEAP1, 100 nM | 94.1 ± 23
sgRNA knockout: sgKEAP1, 1000 nM | 93.1 ± 3.6
sgRNA knockout: sgKEAP1, 10000 nM | 109 ± 4.1
sgRNA knockout: sgNFE2L2, 10 nM | 106 ± 5.3
sgRNA knockout: sgNFE2L2, 100 nM | 84.5 ± 12
sgRNA knockout: sgNFE2L2, 1000 nM | 100 ± 9
sgRNA knockout: sgNFE2L2, 10000 nM | 100 ± 11
sgRNA knockout: sgSLC35F2, 10 nM | 91.5 ± 10
sgRNA knockout: sgSLC35F2, 100 nM | 89.3 ± 23
sgRNA knockout: sgSLC35F2, 1000 nM | 109.8 ± 0.93
sgRNA knockout: sgSLC35F2, 10000 nM | 117.3 ± 0.3
sgRNA knockout: sgXBP1, 10 nM | 93 ± 8.3
sgRNA knockout: sgXBP1, 100 nM | 106 ± 19
sgRNA knockout: sgXBP1, 1000 nM | 111 ± 3.1
sgRNA knockout: sgXBP1, 10000 nM | 114 ± 14

CC[C@@]1(O)C(=O)OCc2c1cc1n(c2=O)Cc2cc3c(CN(C)C)c(O)ccc3nc2-1 [Topotecan]
Details | relative cell number
sgRNA knockout: sgATF3, 10 nM | 63.8 ± 3.7
sgRNA knockout: sgATF3, 100 nM | 60.6 ± 1.6
sgRNA knockout: sgATF3, 1000 nM | 24.4 ± 5
sgRNA knockout: sgATF3, 10000 nM | 11.4 ± 1.8
sgRNA knockout: sgATF4, 10 nM | 84 ± 13
sgRNA knockout: sgATF4, 100 nM | 57.2 ± 5.2
sgRNA knockout: sgATF4, 1000 nM | 26.7 ± 5.2
sgRNA knockout: sgATF4, 10000 nM | 14.5 ± 1
sgRNA knockout: sgATF6, 10 nM | 87.4 ± 11
sgRNA knockout: sgATF6, 100 nM | 61.5 ± 5.3
sgRNA knockout: sgATF6, 1000 nM | 28.1 ± 9.8
sgRNA knockout: sgATF6, 10000 nM | 8.74 ± 1.1
sgRNA knockout: sgATG7, 10 nM | 93.4 ± 4.5
sgRNA knockout: sgATG7, 100 nM | 55.5 ± 2.9
sgRNA knockout: sgATG7, 1000 nM | 25.7 ± 3.3
sgRNA knockout: sgATG7, 10000 nM | 13 ± 3.4
sgRNA knockout: sgERN1, 10 nM | 80.8 ± 12
sgRNA knockout: sgERN1, 100 nM | 52.8 ± 2.3
sgRNA knockout: sgERN1, 1000 nM | 23.6 ± 4.2
sgRNA knockout: sgERN1, 10000 nM | 14.3 ± 5.5
sgRNA knockout: sgHSF1, 10 nM | 84.4 ± 2.3
sgRNA knockout: sgHSF1, 100 nM | 60 ± 1.2
sgRNA knockout: sgHSF1, 1000 nM | 28.4 ± 6.2
sgRNA knockout: sgHSF1, 10000 nM | 11.9 ± 1.8
sgRNA knockout: sgHSF2, 10 nM | 87.2 ± 13
sgRNA knockout: sgHSF2, 100 nM | 53.7 ± 9.3
sgRNA knockout: sgHSF2, 1000 nM | 36.8 ± 17
sgRNA knockout: sgHSF2, 10000 nM | 12.3 ± 0.8
sgRNA knockout: sgKEAP1, 10 nM | 89 ± 1.3
sgRNA knockout: sgKEAP1, 100 nM | 50.8 ± 1.5
sgRNA knockout: sgKEAP1, 1000 nM | 29.6 ± 4.8
sgRNA knockout: sgKEAP1, 10000 nM | 10.8 ± 0.86
sgRNA knockout: sgNFE2L2, 10 nM | 69.3 ± 12
sgRNA knockout: sgNFE2L2, 100 nM | 64.2 ± 1.8
sgRNA knockout: sgNFE2L2, 1000 nM | 27.7 ± 4.9
sgRNA knockout: sgNFE2L2, 10000 nM | 14.6 ± 7.7
sgRNA knockout: sgSLC35F2, 10 nM | 88.9 ± 1.7
sgRNA knockout: sgSLC35F2, 100 nM | 53.3 ± 1.5
sgRNA knockout: sgSLC35F2, 1000 nM | 24.1 ± 7
sgRNA knockout: sgSLC35F2, 10000 nM | 15.7 ± 0.29
sgRNA knockout: sgXBP1, 10 nM | 85.2 ± 9.2
sgRNA knockout: sgXBP1, 100 nM | 50.6 ± 9.3
sgRNA knockout: sgXBP1, 1000 nM | 27.5 ± 8.3
sgRNA knockout: sgXBP1, 10000 nM | 13.6 ± 3.3
